Experimental data from publication PMC11304246.

Chains of the proteins cited; added tags and fusions are not shown.
UniProt P11940: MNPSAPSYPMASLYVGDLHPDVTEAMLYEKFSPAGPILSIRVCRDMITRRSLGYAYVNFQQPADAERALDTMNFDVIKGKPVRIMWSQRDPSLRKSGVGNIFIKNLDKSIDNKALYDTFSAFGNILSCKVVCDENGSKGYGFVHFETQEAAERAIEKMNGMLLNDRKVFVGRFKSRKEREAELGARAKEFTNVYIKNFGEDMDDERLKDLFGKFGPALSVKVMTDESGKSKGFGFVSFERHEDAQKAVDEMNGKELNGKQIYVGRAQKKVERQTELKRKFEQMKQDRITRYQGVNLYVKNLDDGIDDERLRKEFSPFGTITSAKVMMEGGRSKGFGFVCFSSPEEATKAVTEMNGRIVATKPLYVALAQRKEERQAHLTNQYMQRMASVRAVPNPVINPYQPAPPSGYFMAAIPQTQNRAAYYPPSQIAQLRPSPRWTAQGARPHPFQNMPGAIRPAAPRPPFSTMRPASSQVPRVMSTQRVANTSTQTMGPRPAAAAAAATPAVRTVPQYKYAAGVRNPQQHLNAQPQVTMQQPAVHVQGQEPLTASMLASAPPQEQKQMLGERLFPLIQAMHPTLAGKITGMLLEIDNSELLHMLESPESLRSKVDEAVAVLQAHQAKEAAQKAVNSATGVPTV

Target: T1, DAZ1-FLAG-3×HA (deleted in azoospermia 1), stably overexpressed in DAOY cells (human) (UniProt Q9NQZ3)
T1 sequence: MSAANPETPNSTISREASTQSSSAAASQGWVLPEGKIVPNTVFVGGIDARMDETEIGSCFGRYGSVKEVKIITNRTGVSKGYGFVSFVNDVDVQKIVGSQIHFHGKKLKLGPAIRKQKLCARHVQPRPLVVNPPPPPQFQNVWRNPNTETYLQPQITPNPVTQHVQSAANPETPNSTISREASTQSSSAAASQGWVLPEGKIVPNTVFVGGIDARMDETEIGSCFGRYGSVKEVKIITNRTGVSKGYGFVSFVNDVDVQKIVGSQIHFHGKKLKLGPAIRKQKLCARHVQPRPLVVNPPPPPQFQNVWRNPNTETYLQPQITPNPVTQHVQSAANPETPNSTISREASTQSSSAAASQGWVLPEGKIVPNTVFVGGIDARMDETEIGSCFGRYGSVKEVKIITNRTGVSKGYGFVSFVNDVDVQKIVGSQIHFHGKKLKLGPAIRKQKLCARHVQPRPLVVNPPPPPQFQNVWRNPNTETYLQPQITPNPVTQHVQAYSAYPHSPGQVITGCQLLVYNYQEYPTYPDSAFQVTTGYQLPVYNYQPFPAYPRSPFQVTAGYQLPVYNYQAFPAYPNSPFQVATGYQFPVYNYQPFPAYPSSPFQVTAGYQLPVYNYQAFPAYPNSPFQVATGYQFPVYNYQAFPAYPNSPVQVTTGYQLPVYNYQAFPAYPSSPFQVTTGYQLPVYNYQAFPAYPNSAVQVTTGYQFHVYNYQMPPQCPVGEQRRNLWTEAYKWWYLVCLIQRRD
Assay: affinity purification with mass spectrometry; FLAG beads, lysate of the DAOY cell line stably overexpressing DAZ-FLAG; complexes separated by SDS-PAGE, silver stain, mass spectrometry

binding: binds
Substance: PABPC1 (Poly A Binding Protein Cytoplasmic 1), in DAOY cells (from UniProt P11940 1-636)

No constants are given. Whether binding was seen depends on the method and setting. Binding seen in cells or lysates may run through a third protein. These calls come from enrichment with a bait or labelling near it, and not all partners need be listed. Tags and fused reporters may be left off the sequences shown.
